Measured values: the supplement of paper PMC9744312
Counter-ions that a name gives are not always drawn. The list shows a part of the results. Single values of this set are uncertain.

test system: Peyronie's disease tunica albuginea primary fibroblasts; assay: inhibition of TGF-beta1-induced alpha-SMA expression (myofibroblast transformation), relative to TGF-beta1-only and untreated controls; higher = stronger inhibition of myofibroblast transformation; conditions: 10 µM; TGF-beta1 10 ng/mL; 72 h

| SMILES | inhibition of TGF-beta1-induced alpha-SMA expression |
| --- | --- |
| CCNC1(C(N)=O)CCN(c2ncnc3c2nc(-c2ccccc2Cl)n3-c2ccc(Cl)cc2)CC1 | 32.7% |
| CCOC(=O)CC(=O)N1CCSC1COc1ccccc1OC (stereo not drawn) [Moguisteine] | 19.1% |
| CC(=O)Oc1ccc(C(c2ccc(OC(C)=O)cc2)c2ccccn2)cc1 [Bisacodyl] | 39% |
| O=C(O)CCC(=O)c1ccc(-c2ccccc2)cc1 [Fenbufen] | -16% |
| CCCCCCCCOc1ccccc1C(=O)Nc1ccc(C(=O)OCC[N+](C)(CC)CC)cc1 [Otilonium Bromide] | 11.4% |
| CN1CCN2c3ccccc3Cc3ccccc3C2C1 (stereo not drawn) [Mianserin HCl] | -9.38% |
| CCCCc1ncc(/C=C(\Cc2cccs2)C(=O)O)n1Cc1ccc(C(=O)O)cc1 [Eprosartan Mesylate] | -12.7% |
| CN(C)CCc1c[nH]c2ccc(CS(=O)(=O)N3CCCC3)cc12 [Almotriptan Malate] | 10.3% |
| CC(C)C[C@H](NC(=O)[C@@H](Cc1cccc2ccccc12)NC(=O)[C@H](Cc1ccc(O)cc1)NC(=O)[C@H](CO)NC(=O)[C@H](Cc1c[nH]c2ccccc12)NC(=O)[C@H](Cc1cnc[nH]1)NC(=O)[C@@H]1CCC(=O)N1)C(=O)N[C@@H](CCCNC(=N)N)C(=O)N1CCC[C@H]1C(=O)NCC(N)=O [Nafarelin Acetate] | -3.54% |
| O=C(NC(Cc1cc(=O)[nH]c2ccccc12)C(=O)O)c1ccc(Cl)cc1 (stereo not drawn) [Rebamipide] | 7.42% |
| C[N+](C)(C)CCOC(N)=O [Carbachol] | 34.1% |
| COC(=O)/C=C/C(=O)OC [Dimethyl Fumarate] | 25.4% |
| CCOC(=O)C1=C(C)NC(C)=C(C(=O)OC)C1c1cccc(Cl)c1Cl (stereo not drawn) [Felodipine] | -3.85% |
| CO[C@H]1C[C@H](O[C@@H]2/C(C)=C/C[C@@H]3C[C@@H](C[C@]4(CC[C@H](C)[C@@H](C5CCCCC5)O4)O3)OC(=O)[C@@H]3C=C(C)/C(=N/O)[C@H]4OC/C(=C\C=C\[C@@H]2C)[C@]43O)O[C@@H](C)[C@@H]1O [Selamectin] | 3.85% |
| C[C@H](CCC(=O)O)[C@H]1CC[C@H]2[C@@H]3C(=O)C[C@@H]4CC(=O)CC[C@]4(C)[C@H]3CC(=O)[C@]12C [Dehydrocholic acid] | 18.4% |
| O=C1c2c(O)ccc(O)c2C(=O)c2c(NCCNCCO)ccc(NCCNCCO)c21 [Mitoxantrone 2HCl] | > 100% |
| Cc1ccc(Nc2nccc(N(C)c3ccc4c(C)n(C)nc4c3)n2)cc1S(N)(=O)=O | -16.4% |

Quoted from the listing.
For inhibition of TGF-beta1-induced alpha-SMA expression, O=C(O)CCC(=O)c1ccc(-c2ccccc2)cc1 [Fenbufen] has the entry -16%
For inhibition of TGF-beta1-induced alpha-SMA expression, Cc1ccc(Nc2nccc(N(C)c3ccc4c(C)n(C)nc4c3)n2)cc1S(N)(=O)=O has the entry -16.4%

Continuation:

| SMILES | inhibition of TGF-beta1-induced alpha-SMA expression |
| --- | --- |
| Cc1ccc(Nc2nccc(N(C)c3ccc4c(C)n(C)nc4c3)n2)cc1S(N)(=O)=O [Pazopanib] | 29.5% |
| CCCCC(=O)N(Cc1ccc(-c2ccccc2-c2nnn[nH]2)cc1)[C@H](C(=O)O)C(C)C [Valsartan] | 17.8% |
| COc1cc(Nc2ncc3c(n2)-c2ccc(Cl)cc2C(c2c(F)cccc2OC)=NC3)ccc1C(=O)O [Alisertib (MLN8237)] | -63.2% |
| CCOC(CN1CCN(CC(C)C(=O)c2ccccc2)CC1)c1ccccc1 (stereo not drawn) [Eprazinone 2HCl] | 24.6% |
| OCC(CO)N[C@H]1C[C@](O)(CO)[C@@H](O)[C@H](O)[C@H]1O [Voglibose] | -13.9% |
| COc1ccc(C[C@@H](C)NC[C@H](O)c2ccc(O)c(NC=O)c2)cc1 [Arformoterol Tartrate] | 16.5% |
| Cc1c(C(=O)Nc2ccc(N3C[C@@H](C)O[C@@H](C)C3)nc2)cccc1-c1ccc(OC(F)(F)F)cc1 [Sonidegib (Erismodegib, NVP-LDE225)] | 34.6% |
| O=C1c2cccc(O)c2C(=O)c2c(O)cccc21 [Danthron] | 12.3% |
| CCOC(N)=O [Urethane] | -23.5% |
| CC12CC3CC(C)(C1)CC(N)(C3)C2 [Memantine HCl] | 9.81% |
| CN1C(C(=O)Nc2ccccn2)=C(O)c2sc(Cl)cc2S1(=O)=O [Lornoxicam] | 3.24% |
| CC(C)c1nc(CN(C)C(=O)N[C@@H](CCN2CCOCC2)C(=O)N[C@H](CC[C@H](Cc2ccccc2)NC(=O)OCc2cncs2)Cc2ccccc2)cs1 [Cobicistat (GS-9350)] | -15.8% |
| Cc1cccc(-c2nn3c(c2-c2ccnc4ccc(C(N)=O)cc24)CCC3)n1 | > 100% |
| O=c1cc[nH]c(=O)[nH]1 [Uracil] | 19% |
| CCOC(=O)N1c2ccc(C(F)(F)F)cc2[C@@H](N(Cc2cc(C(F)(F)F)cc(C(F)(F)F)c2)C(=O)OC)C[C@H]1CC [Torcetrapib] | -8.78% |
| CCC[C@@H]1C[C@@H](C(=O)N[C@@H]([C@H]2O[C@H](SC)[C@H](O)[C@@H](O)[C@H]2O)[C@@H](C)O)N(C)C1 [Lincomycin HCl] | 6.85% |
